Library screening results

Source: ChEMBL document CHEMBL3988442, “University of Dundee, Small-Polar-MMV Screening Library” (2021).

Mtb growth Cornell: 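Whole-cell assay for inhibitors of Mycobacterium tuberculosis growth, labelled Cornell in the record; the read-out is not stated. The concentration is filed as 10 mM, unlikely as a test dose, so the dose is not known. Higher means stronger inhibition (inferred from two other growth screens of the library). Size under these conditions: about 53,000 compounds, about 900 of them at 50% or above in at least one test.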
Mtb heat-shock: 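Assay on Mycobacterium tuberculosis, filed only as a heat shock assay from Cornell; the read-out is not stated. The concentration is filed as 10 mM, unlikely as a test dose, so the dose is not known. Higher reads as stronger inhibition (inferred: compounds with an IC50 in retests scored well above the rest). Size under these conditions: about 69,000 compounds, about 930 of them at 50% or above in at least one test.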

The filed quantity is “Percent Effect” (%).
The controls that fix the scale are not given in the record; negative values are as filed.
This is an unselected part of the compounds tested.
A dash means the value is not listed here; it may have been measured.

| # | Compound | Mtb growth Cornell | Mtb heat-shock |
|---|---|---|---|
| 1 | `COc1ncc(CN2CCOC(Cc3cccc4ccccc34)C2)cn1` (stereo not shown) | -32.63% | -20.4% |
| 2 | `O=C1C(Sc2nnnn2C2CC2)CCN1c1ccccc1F` (stereo not shown) | -21.88% | 2.038% |
| 3 | `O=C(O)C(F)(F)F.[H][C@@]12CO[C@@H](CNC(=O)c3nccn3C)[C@]1([H])CCN(C)C2` | -18.97% | -30.43% |
| 4 | `Cc1ccc2nc3n(c2c1)[C@@H](CNCc1nccs1)COC3` | 22.33% | -5.228% |
| 5 | `Cc1ccc(OCCSCCn2nc3ccccn3c2=O)cc1` | 26.92% | 2.04% |
| 6 | `O=C(c1ccno1)N1CCn2cc(CN3CCCCC3)nc2C1` | 6.548% | -2.003% |
| 7 | `Cc1cc(-c2nnn(CCNS(C)(=O)=O)n2)ccc1F` | 38.37% | 10.49% |
| 8 | `CC1CN(C(=O)c2cc(=O)[nH]c3ccc(F)cc23)CCO1` (stereo not shown) | -6.481% | -15.02% |
| 9 | `[H][C@@]12COC[C@@H](Cc3nnc(C)o3)[C@]1([H])CN(C(=O)c1ccco1)C2` | 29.52% | -21.62% |
| 10 | `Cc1cccc(CN2CCC3(CC2)COC(COCC2CC2)C3)n1` (stereo not shown) | -2.566% | 9.822% |
| 11 | `Cc1cc(NCCc2nnc(N)s2)nc(-c2ccccc2)n1` | - | -24.67% |
| 12 | `CC(C)(C)C(=O)N1CCC(n2nc(-c3ccco3)ccc2=O)CC1` | 20.92% | 12.89% |
| 13 | `CN(c1cccc2ccccc12)S(=O)(=O)c1cc(C(=O)O)cs1` | - | -0.9533% |
| 14 | `Cc1noc(CS(=O)(=O)C(C)C(=O)N(C)c2ccccc2)n1` (stereo not shown) | 5.129% | 6.585% |
| 15 | `[H][C@@]12CCN(C(=O)c3ccco3)C[C@]1([H])[C@@H](CNC(=O)C1CC1)OC2` | 8.797% | -15.68% |
| 16 | `CN(C)CC(=O)N1CCc2onc(Cn3cccn3)c2C1` | 7.867% | 5.165% |
| 17 | `CN(C)CCN(Cc1cccc(F)c1)C(=O)c1ccn(C)c(=O)c1` | - | 1.788% |
| 18 | `CCCNC(=O)NC(=O)CNc1c(F)cccc1N1CCCC1` | -0.2754% | 16.21% |
| 19 | `O=C(O)C(F)(F)F.O=C(O)C(F)(F)F.[H][C@@]12CCC(=O)N(c3cnn(C)c3)[C@]1([H])CCN2Cc1ccncc1` | 35.02% | 7.26% |
| 20 | `O=C(CC1CCCC1)N[C@H]1CN(Cc2c[nH]cn2)C[C@@H]1C1CC1` | -7.825% | -25.45% |
| 21 | `[H][C@@]12CCN(Cc3ccc(C)s3)C[C@]1(C(=O)N1CCCO1)CCO2` | 33.12% | -8.799% |
| 22 | `CC(C)N(C(=O)c1csc(-c2ccoc2)n1)C1CCOCC1` | 25.56% | -1.251% |
| 23 | `O=C(CCc1cn[nH]c1)N1CCC(C2CCN(c3ncccn3)CC2)C1` (stereo not shown) | 18.37% | -10.36% |
| 24 | `COc1ccc(CC(=O)N2CCC[C@@H](N)[C@@H]2c2ccccc2F)cc1.Cl` | 0.3119% | -13.75% |
| 25 | `CN(CC(=O)N1CCCC1Cn1cccn1)C1CC1` (stereo not shown) | 31.29% | 13.86% |
| 26 | `CCc1nn(C)c2[nH]nc(NC(=O)c3cccnc3NC(C)C)c12` | 17.63% | -0.5114% |
| 27 | `CC(=O)N(Cc1noc(C2CC2)n1)C1CCN(Cc2ccccc2)C1` (stereo not shown) | 18.96% | -0.2527% |
| 28 | `CC1CCN(C(=O)C2CC(=O)N(c3cnn(C(C)C)c3)C2)CC1` (stereo not shown) | -3.187% | 17.29% |
| 29 | `O=C(c1nnn(-c2ccc(F)cc2)n1)N(CCO)Cc1ccccc1` | 14.73% | -28.72% |
| 30 | `CCN1CCCC(O)(c2nc(C)c(CCOc3ccc(F)cc3)s2)CC1` (stereo not shown) | -9.089% | 12.26% |
| 31 | `O=c1ccc2c(n1Cc1ccncc1)CCN(C1CCOC1)CC2` (stereo not shown) | 8.049% | -9.079% |
| 32 | `CN(C)C(=O)c1n[nH]c2c1CN(Cc1nccs1)CC2.O=C(O)C(F)(F)F` | -2.426% | -16.22% |
| 33 | `CN(Cc1ccc2c(c1)OCO2)Cc1cscn1` | -13.71% | -8.751% |
| 34 | `c1ccc(CCCN2CCN(CCn3cncn3)CC2)cc1` | -6.268% | -5.563% |
| 35 | `Cc1ccc([C@@H]2CN(C(=O)c3ccon3)C[C@H]2NC(=O)C2CC2)cc1` | - | -11.37% |
| 36 | `[H][C@@]12CNC[C@]1([H])CN(C(=O)C1CCOCC1)C2` | -13.64% | -5.44% |
| 37 | `FC(F)(F)c1n[nH]c2c1CN(CCc1ccccn1)CC2` | - | -13.76% |
| 38 | `Cc1ccc(CN2CCN(c3nc4c(s3)c(C)nn4C)C(C)C2=O)cc1` (stereo not shown) | - | -10.77% |
| 39 | `O=C(CCCN1CCOCC1)N1CCCC(CO)(CC2CC2)C1` (stereo not shown) | - | 0.8539% |
| 40 | `Cc1cn(Cc2nc(CC(C)C)nn2-c2ccccn2)c(=O)[nH]c1=O` | - | -9.413% |
| 41 | `O=C(c1cccnc1O)N1CCCN(c2cccnn2)CC1` | 9.001% | 2.756% |
| 42 | `Cn1cccc1C(=O)NCc1cn2c(n1)CN(CC1CCOC1)CC2` (stereo not shown) | -29.3% | -14.51% |
| 43 | `Cc1nccnc1CN1CCC2(CCCN(C3CCOCC3)C2=O)C1` (stereo not shown) | 9.416% | 11.94% |
| 44 | `Cn1c(CCCNC(=O)Nc2cn[nH]c2)nc2ccccc21` | 0.1526% | -23.68% |
| 45 | `Cn1ccnc1CN1CCOC(Cc2ccccc2)C1` (stereo not shown) | 24.82% | -7.917% |
| 46 | `CC(C1CC1)N(C(=O)CNc1ccc(C#N)cc1)C1CC1` (stereo not shown) | 24.08% | -0.06501% |
| 47 | `COc1ccc(-n2ccnc2-c2cnc(N(C)C)nc2)cc1OC` | -10.64% | -20.45% |
| 48 | `Cc1cc(N2CCC(CC(N)=O)CC2)nc(-c2ccncc2)n1` | 23.93% | 15.64% |
| 49 | `Cc1nc(C)n(CC2CCCCN2CCCC#N)n1` (stereo not shown) | -2.434% | -5.991% |
| 50 | `O=C(NCC1CCOC1)N1CCN(Cc2ccc3c(c2)CCO3)CC1` (stereo not shown) | 23.28% | -13.65% |
| 51 | `CC(=O)N1CCC2(CC1)CNc1c(F)cccc12.Cl` | 21.65% | 12.35% |
| 52 | `Cc1cc(CN(C)c2nc(-c3ccccn3)nc3c2CCNCC3)n[nH]1` | 45.18% | -12.36% |
| 53 | `Cc1cccn2c(=O)cc(CN3CCCCC3Cn3cncn3)nc12` (stereo not shown) | -16.25% | -14.77% |
| 54 | `Cc1nc(CN(C)Cc2nc(-c3ccncc3)no2)co1` | 1.281% | -19.95% |
| 55 | `CN1CCN(C(=O)C2(NC(N)=O)CCCCC2)Cc2ccccc21` | - | -127.8% |
| 56 | `Cc1cnn(CCNCc2csc(-c3ccc(C(N)=O)cc3)n2)c1` | - | -3.906% |
| 57 | `CS(=O)(=O)N1CCN(C(=O)CCC2CCCO2)CC1` (stereo not shown) | - | 9.25% |
| 58 | `O=C1CCCN1CCCNCc1cc(O)c2cccc(Cl)c2n1` | - | -13.37% |
| 59 | `COc1cc2c(nn1)CCN(Cc1noc(-c3ccccc3)n1)C2` | - | 21.23% |
| 60 | `CC1CCCN(S(=O)(=O)NCc2ccccc2Cn2cncn2)C1` (stereo not shown) | -28.46% | -21.27% |
| 61 | `CS(=O)(=O)N1CC2(CCN(CC3CCCCC3)C2)Cc2ccccc21` (stereo not shown) | - | -1.426% |

The last 4 entries again:

Compound	Mtb growth Cornell	Mtb heat-shock
O=C1CCCN1CCCNCc1cc(O)c2cccc(Cl)c2n1	-	-13.37%
COc1cc2c(nn1)CCN(Cc1noc(-c3ccccc3)n1)C2	-	21.23%
CC1CCCN(S(=O)(=O)NCc2ccccc2Cn2cncn2)C1 (stereo not shown)	-28.46%	-21.27%
CS(=O)(=O)N1CC2(CCN(CC3CCCCC3)C2)Cc2ccccc21 (stereo not shown)	-	-1.426%